The list does not hold the whole screen: it gathers tests that were run many times, whatever their T/C, doses with no T/C, and many T/C values between a quarter and a half above the control. Other doses and runs of a compound stand elsewhere. T/C gives the treated animals as a percentage of the vehicle group. Where survival is the endpoint, this PubChem deposit counts one and a half times the control or more as active, and values a quarter to a half above the control carry no call in these data; other NCI protocols may use other cut-offs. Schedules are NCI's codes, taken here to give the interval after Q, in days (D) or hours (H), and the number of doses after X. Some T/C values are followed by the survivors on the day toxicity was checked, most often the fifth; where none is given, no animal had died by that day. Some entries were tested several times; the values are given in rising order. Brackets with × say how often a value occurs here. Some schedule codes hold Z or #, which are not explained here.
Tested on: L1210 leukemia ip in BDF1 mice, survival T/C
Experiment: NCI In Vivo Anticancer Drug Screen. Data for tumor model L1210 Leukemia (intraperitoneal) in B6D2F1 (BDF1) mice
Details: T/C endpoint: mean survival time, higher T/C = longer survival

`S=c1nc[nH]c2nc[nH]c12` was tested, and the T/C (dose: 0.6 mg/kg/injection, schedule: Q#A X Z (ip), vehicle: other) was 140 % of control, the T/C (dose: 1.25 mg/kg/injection, schedule: Q#A X Z (ip), vehicle: other) was 148 % of control and the T/C (dose: 2.5 mg/kg/injection, schedule: Q01DX Z (ip), vehicle: other) was 130 % of control. For the same compound, the T/C (dose: 3.25 mg/kg/injection, schedule: Q01DX015 (ip), vehicle: other) was 144 % of control, the T/C (dose: 3.5 mg/kg/injection, schedule: Q01DX Z (ip), vehicle: carboxymethylcellulose (CMC)) was 110, 111, 115, 123, 127, 128, 132, 147 % of control and the T/C (dose: 4.4 mg/kg/injection, schedule: Q01DX001 (ip), vehicle: other) was 137 % of control. For the same compound, the T/C (dose: 4.4 mg/kg/injection, schedule: Q07DX Z (ip), vehicle: other) was 131 % of control, the T/C (dose: 5.0 mg/kg/injection, schedule: Q01DX010 (ip), vehicle: alkali diluted with saline) was 96, 97, 100, 101 % of control and the T/C (dose: 5.0 mg/kg/injection, schedule: Q01DX Z (ip), vehicle: carboxymethylcellulose (CMC)) was 134 % of control. For the same compound, the T/C (dose: 5.0 mg/kg/injection, schedule: Q01DX Z (ip), vehicle: other) was 144 % of control, the T/C (dose: 5.0 mg/kg/injection, schedule: Q#A X Z (ip), vehicle: other) was 145 and 147 % of control and the T/C (dose: 6.25 mg/kg/injection, schedule: Q01DX015 (ip), vehicle: alkali diluted with saline, evaluated on day 5) was 106 and 116 % of control. For the same compound, the T/C (dose: 6.25 mg/kg/injection, schedule: Q01DX015 (ip), vehicle: alkali diluted with saline, evaluated on day 30) was 106 and 116 % of control, the T/C (dose: 7.0 mg/kg/injection, schedule: Q01DX Z (ip), vehicle: carboxymethylcellulose (CMC)) was 134 (2×), 135 (2×), 140, 141, 144, 147, 151 % of control and the T/C (dose: 7.0 mg/kg/injection, schedule: Q01DX Z (oral), vehicle: carboxymethylcellulose (CMC)) was 106, 107, 108, 110, 131 % of control. The T/C (dose: 7.5 mg/kg/injection, schedule: Q## X027 (ip), vehicle: saline) was 139 % of control, the T/C (dose: 8.0 mg/kg/injection, schedule: Q01DX015 (ip), vehicle: carboxymethylcellulose (CMC)) was 136 % of control and the T/C (dose: 8.0 mg/kg/injection, schedule: Q12HX012 (ip), vehicle: alkali diluted with saline) was 127 % of control. The T/C (dose: 8.56 mg/kg/injection, schedule: Q01DX Z (ip), vehicle: carboxymethylcellulose (CMC)) was 138 % of control, the T/C (dose: 8.8 mg/kg/injection, schedule: Q07DX Z (ip), vehicle: other) was 146 % of control and the T/C (dose: 9.0 mg/kg/injection, schedule: Q01DX015 (ip), vehicle: alkali diluted with saline) was 127 % of control. For the same compound, the T/C (dose: 10.0 mg/kg/injection, schedule: Q01DX009 (ip), vehicle: saline with Tween-80) was 132 and 136 % of control, the T/C (dose: 10.0 mg/kg/injection, schedule: Q01DX010 (ip), vehicle: alkali diluted with saline) was 94, 102, 105, 108 % of control and the T/C (dose: 10.0 mg/kg/injection, schedule: Q01DX Z (ip), vehicle: alkali diluted with saline) was 127 % of control. The T/C (dose: 10.0 mg/kg/injection, schedule: Q01DX Z (ip), vehicle: carboxymethylcellulose (CMC)) was 144 % of control, the T/C (dose: 10.0 mg/kg/injection, schedule: Q01DX Z (ip), vehicle: other) was 136 % of control and the T/C (dose: 10.0 mg/kg/injection, schedule: Q## X032 (ip), vehicle: alkali diluted with saline) was 126 % of control. For the same compound, the T/C (dose: 10.0 mg/kg/injection, schedule: Q#A X Z (ip), vehicle: other) was 149 % of control, the T/C (dose: 12.5 mg/kg/injection, schedule: Q01DX015 (ip), vehicle: alkali diluted with saline, evaluated on day 5) was 106 and 118 % of control and the T/C (dose: 12.5 mg/kg/injection, schedule: Q01DX015 (ip), vehicle: alkali diluted with saline, evaluated on day 30) was 106 and 118 % of control. For the same compound, the T/C (dose: 12.5 mg/kg/injection, schedule: Q01DX Z (ip), vehicle: other) was 125 % of control, the T/C (dose: 13.0 mg/kg/injection, schedule: Q02DX010 (ip), vehicle: carboxymethylcellulose (CMC)) was 140 % of control and the T/C (dose: 13.0 mg/kg/injection, schedule: Q06HX012 (ip), vehicle: alkali diluted with saline) was 142 % of control. The T/C (dose: 13.0 mg/kg/injection, schedule: Q12HX012 (ip), vehicle: alkali diluted with saline) was 132 % of control, the T/C (dose: 14.0 mg/kg/injection, schedule: Q01DX Z (ip), vehicle: alkali diluted with saline) was 126 % of control and the T/C (dose: 14.0 mg/kg/injection, schedule: Q01DX Z (ip), vehicle: carboxymethylcellulose (CMC)) was 137, 147, 153, 156 (2×), 163, 172, 178, 190 % of control [5 of 6 alive]. The T/C (dose: 14.0 mg/kg/injection, schedule: Q01DX Z (oral), vehicle: alkali diluted with saline) was 134 % of control, the T/C (dose: 14.0 mg/kg/injection, schedule: Q01DX Z (oral), vehicle: carboxymethylcellulose (CMC)) was 110, 120 (2×), 131, 138 % of control and the T/C (dose: 14.0 mg/kg/injection, schedule: Q02DX010 (ip), vehicle: carboxymethylcellulose (CMC)) was 148 % of control. The T/C (dose: 14.5 mg/kg/injection, schedule: Q02DX010 (ip), vehicle: carboxymethylcellulose (CMC)) was 147, 154, 160, 164 % of control, the T/C (dose: 15.0 mg/kg/injection, schedule: Q01DX001 (ip), vehicle: saline) was 126 (3×), 129, 132, 133 (2×), 145 % of control and the T/C (dose: 15.0 mg/kg/injection, schedule: Q01DX005 (ip), vehicle: saline) was 143 and 148 % of control. For the same compound, the T/C (dose: 15.0 mg/kg/injection, schedule: Q01DX009 (ip), vehicle: alkali diluted with saline, evaluated on day 30) was 112, 119, 123, 124 % of control, the T/C (dose: 15.0 mg/kg/injection, schedule: Q01DX009 (ip), vehicle: alkali diluted with saline, evaluated on day 60) was 132 % of control and the T/C (dose: 15.0 mg/kg/injection, schedule: Q01DX009 (ip), vehicle: other) was 140 and 142 % of control. The T/C (dose: 15.0 mg/kg/injection, schedule: Q01DX015 (ip), vehicle: saline) was 134 % of control, the T/C (dose: 15.0 mg/kg/injection, schedule: Q02DX010 (ip), vehicle: carboxymethylcellulose (CMC)) was 139, 156, 197, 203 % of control and the T/C (dose: 15.0 mg/kg/injection, schedule: Q## X027 (ip), vehicle: saline) was 136 % of control. The T/C (dose: 16.0 mg/kg/injection, schedule: Q01DX015 (ip), vehicle: carboxymethylcellulose (CMC)) was 149 % of control, the T/C (dose: 16.0 mg/kg/injection, schedule: Q## X032 (ip), vehicle: alkali diluted with saline) was 130 % of control and the T/C (dose: 16.2 mg/kg/injection, schedule: Q02DX010 (ip), vehicle: carboxymethylcellulose (CMC)) was 145 % of control. The T/C (dose: 16.34 mg/kg/injection, schedule: Q02DX010 (ip), vehicle: carboxymethylcellulose (CMC)) was 137 % of control, the T/C (dose: 18.0 mg/kg/injection, schedule: Q01DX009 (ip), vehicle: alkali diluted with saline) was 134 % of control and the T/C (dose: 18.0 mg/kg/injection, schedule: Q## X009 (ip), vehicle: alkali diluted with saline) was 134 % of control. The T/C (dose: 20.0 mg/kg/injection, schedule: Q01DX005 (ip), vehicle: other) was 103, 110, 113, 114, 114 [5 of 6 alive], 116 (2×), 121 (2×), 122 (2×), 123, 134 % of control [5 of 6 alive], the T/C (dose: 20.0 mg/kg/injection, schedule: Q01DX010 (ip), vehicle: alkali diluted with saline) was 98, 101, 108 % of control (2×) and the T/C (dose: 20.0 mg/kg/injection, schedule: Q01DX Z (ip), vehicle: other) was 148 % of control. For the same compound, the T/C (dose: 20.0 mg/kg/injection, schedule: Q01DX Z (oral), vehicle: other) was 132 % of control, the T/C (dose: 20.0 mg/kg/injection, schedule: Q01DX Z (sc), vehicle: other) was 136 % of control and the T/C (dose: 21.9 mg/kg/injection, schedule: Q02DX010 (ip), vehicle: carboxymethylcellulose (CMC)) was 150, 154, 161 (2×), 179 % of control. The T/C (dose: 22.0 mg/kg/injection, schedule: Q02DX010 (ip), vehicle: carboxymethylcellulose (CMC)) was 139, 143, 158 (2×), 160, 163, 165, 184, 185, 186 % of control, the T/C (dose: 22.0 mg/kg/injection, schedule: Q02DX010 (ip), vehicle: other) was 132, 136, 161, 176 % of control and the T/C (dose: 25.0 mg/kg/injection, schedule: Q01DX009 (ip), vehicle: saline) was 146 % of control. For the same compound, the T/C (dose: 25.0 mg/kg/injection, schedule: Q01DX015 (ip), vehicle: alkali diluted with saline, evaluated on day 5) was 116 and 122 % of control, the T/C (dose: 25.0 mg/kg/injection, schedule: Q01DX015 (ip), vehicle: alkali diluted with saline, evaluated on day 30) was 116 and 122 % of control and the T/C (dose: 25.0 mg/kg/injection, schedule: Q01DX Z (ip), vehicle: other) was 137 % of control. For the same compound, the T/C (dose: 25.46 mg/kg/injection, schedule: Q02DX010 (ip), vehicle: carboxymethylcellulose (CMC)) was 145 % of control, the T/C (dose: 26.0 mg/kg/injection, schedule: Q01DX015 (ip), vehicle: alkali diluted with saline, evaluated on day 5) was 115, 116, 117, 120 (2×), 121, 122, 127, 134, 136 % of control and the T/C (dose: 26.0 mg/kg/injection, schedule: Q01DX015 (ip), vehicle: alkali diluted with saline, evaluated on day 35) was 136 % of control. For the same compound, the T/C (dose: 26.0 mg/kg/injection, schedule: Q01DX015 (ip), vehicle: alkali diluted with saline, evaluated on day 45) was 115, 117, 120, 121, 127 % of control, the T/C (dose: 26.0 mg/kg/injection, schedule: Q## X032 (ip), vehicle: alkali diluted with saline) was 145 % of control and the T/C (dose: 27.0 mg/kg/injection, schedule: Q01DX009 (ip), vehicle: alkali diluted with saline) was 142 % of control. The T/C (dose: 27.0 mg/kg/injection, schedule: Q01DX015 (ip), vehicle: alkali diluted with saline) was 132 % of control.

— PubChem BioAssay AID248 (DTP/NCI, 2004)
